# Assay results published in PubChem BioAssay AID588499 (NMMLSC, 2011).
# Out of some 360,000 compounds screened, about 610 (0.17%) were called active. The inconclusive results got no clear call from the source; some entries with a clear call stand among them for comparison. Rule as the data show it: active = inhibition above about 30%; inconclusive = no clear call, values can overlap the other calls; inactive = below that.
# System: Botulinum neurotoxin type A light chain protease (Clostridium botulinum A str. ATCC 3502)
# Assay: blockers of BoNT/A LC substrate cleavage – biochemical, flow cytometry, MLPCN library, primary screen (AID 588499); also: plate controls were buffer without enzyme for full effect and enzyme alone for no effect
# Settings: multiplex microsphere protease substrate cleavage, at 10 µM, active compounds read high
row,Compound,inhibition
1,O=C(Cc1ccccc1)N/N=C/c1cc(Br)c(Br)o1,inconclusive: -3.2%
2,CNC(=O)/C(C#N)=C1\SC(Cc2ccc(F)cc2)C(=O)N1c1ccccc1C (stereo unspecified),inconclusive: -3.6%
3,CCn1nc(NS(=O)(=O)c2ccccc2)c2cc3cccc(C)c3nc21,inconclusive: 4.2%
4,O=C(/C=C/c1cccc([N+](=O)[O-])c1)NCc1cccnc1,inactive: -0.7%
5,OC(CN1CCOCC1)Cn1c2c(c3ccccc31)CCCC2 (stereo unspecified),inactive: -1%
6,COc1ccc(Cc2c(-c3ccc(OC)c(OC)c3)nc3c(C)cc(Br)cn23)c(C)c1,active: 31.6%
7,O=C(NCC1CCCO1)c1cnn2c(C(F)F)cc(C3CC3)nc12 (stereo unspecified),inactive: -2.4%
8,Cn1c(O)c(C=NC2CCN(Cc3ccccc3)CC2)c(=O)[nH]c1=O,inconclusive: 0%
9,CCCn1c2ccccc2c2nc3ccccc3nc21,active: 57%
10,Cc1ccc(C)c(CC(=O)N2CCCC(c3cc(C(=O)Nc4ccccc4Cl)no3)C2)c1 (stereo unspecified),inactive: -0.6%
11,O=S(=O)(c1cccc(S(=O)(=O)N2CCCC2)c1)c1cccc(S(=O)(=O)N2CCCC2)c1,inconclusive: -2%
12,COc1ccc(OC)c(NC(=O)CS(=O)(=O)c2ccccc2)c1,inactive: 0%
13,CC(=O)N1N=C(c2ccncc2)OC12CCCCCC2,inconclusive: -2.3%
14,COc1ccc(CN2CCC(C(=O)c3ccc(Cl)cc3)CC2)cc1,inconclusive: 2%
15,FC(F)Sc1ccc(Nc2ncnc3nc[nH]c23)cc1,inconclusive: -1%
16,O=C(COC(=O)C1CCN(c2ccc(C(F)(F)F)cn2)CC1)Nc1cccc(F)c1,inconclusive: 6.3%
17,CNC(=O)C1CC(=O)N(Cc2ccccc2)C(=Nc2ccc(OC)cc2)S1 (stereo unspecified),inconclusive: -3.1%
18,O=C(CCCN1C(=O)c2ccccc2C1=O)NCc1ccc(F)cc1,inactive: -8.2%
19,COc1ccc(OC)c(/C=N/NC(=O)c2cnccn2)c1,inconclusive: 4.1%
20,COc1ccc(C(=O)NCS(=O)(=O)c2ccc(C)cc2)cc1,inconclusive: 4.3%
21,O=C(Nc1nnc(C2CCCCC2)s1)c1cccs1,inconclusive: -1.9%
22,CCOC(=O)C1(C)CCN1C(=O)c1ccc(Cl)nc1 (stereo unspecified),inactive: 0.2%
23,COc1ccc(CCC(C)NCc2cc(OC)cc(OC)c2)cc1 (stereo unspecified),inconclusive: 4%

row,Compound,inhibition
1,CC(C)Cc1ccc(C(C)C(=O)N2CCOCC2)cc1 (stereo unspecified),inconclusive: 4.2%
2,COc1ccc(-c2n[nH]c(C)c2-c2cnn(-c3ccccc3)c2)c(O)c1,inconclusive: 0.9%
3,Cc1cc2nsnc2c(S(=O)(=O)NCC(=O)O)c1C,inconclusive: 2%
4,CC(=NNC(=S)N1CCN(c2ccccn2)CC1)c1nccs1,inactive: 15.7%
5,O=C1c2ccccc2C(=O)C1c1ccc2ccccc2n1,inconclusive: -1.7%
6,COc1ccc(CNC2CCCc3ccccc32)c(OC)c1 (stereo unspecified),inconclusive: -8.7%
7,NC(=O)Cn1nnc(-c2ccc(C(F)(F)F)cc2)n1,inconclusive: -6.2%
8,COc1cccc(CN(C)C(=O)C(CCSC)NS(=O)(=O)c2ccc3c(c2)OCCO3)c1OC (stereo unspecified),inconclusive: -3.7%
9,COc1ccc(C2N(C(=O)CN3CCOCC3)CCN2S(=O)(=O)c2ccccc2)cc1 (stereo unspecified),inconclusive: -0.3%
10,CCCSc1nc(O)c(C(c2ccc(OC)c(O)c2)c2c(O)nc(SCCC)n(C)c2=O)c(=O)n1C,inactive: -0.1%
11,COC(=O)c1cccc(S(=O)(=O)N2CCN(c3nc4ccccc4s3)CC2)c1,inconclusive: -1.9%
12,COc1cccc(C#Cc2cnc3c(c2)C(=O)N([C@@H](C)CO)C[C@H](C)[C@H](CN(C)C(=O)C2CCC2)O3)c1,inactive: 0.1%
13,COCCn1c(C(C)C)nc2sc3ccccc3c(=O)c2c1=O,inconclusive: 5.4%
14,CCCN(CC(=O)Nc1ccccc1OC)C(=O)Cn1c(=O)oc2ccccc21,inactive: -1.8%
15,COc1ccc2oc(C(=O)Nc3ccc(N4CCOCC4)cc3)c(C)c2c1,inactive: -3.3%
16,COc1ccc(NC(=O)NC2CCN(C(C)C)CC2)c(OC)c1,inconclusive: -1.2%
17,CC1CN(S(=O)(=O)c2ccccc2)CC(C)O1 (stereo unspecified),inconclusive: 0.9%
18,O=C(O)Cc1ccc(NC(=O)c2cccs2)cc1,inconclusive: 2%
19,O=C(O)C1C2CCC(C2)C1C(=O)Nc1cc(F)ccc1F (stereo unspecified),inactive: -1.3%
20,Cc1ccc(NC(=O)C2=NNC(=O)CC2)cc1F,inconclusive: 15.2%
21,O=c1oc2ccccc2nc1/C=C(\O)c1ccccc1,inactive: -1.3%
22,O=C(Nc1cccc(S(=O)(=O)NC2=NCCCCC2)c1)c1ccc(Cl)cc1,inactive: -2.9%
23,c1ccc2c(C3OCC4(CCCCC4)CO3)cccc2c1,inactive: 0.3%

row,Compound,inhibition
1,O=C1/C(=C/c2cccc([N+](=O)[O-])c2)CSc2ccc(Cl)cc21,inconclusive: 32.6%
2,CCN1C(=O)CC(N2CCN(c3ccc(C(=O)c4ccncc4)cc3)CC2)C1=O (stereo unspecified),inconclusive: 1.1%
3,CC(C)(C)NC(=O)N1CCN(c2ncccc2C(F)(F)F)CC1,inconclusive: -12.9%
4,Cc1cc(OCC(=O)N2CCOCC2)cc2oc(=O)c3ccccc3c12,inactive: -0.1%
5,O=C(Nc1cccc(-c2nc3ncccc3o2)c1)c1sc2ccccc2c1Cl,inactive: 7.5%
6,Cn1c(=O)c2c(nc(CN3CCOCC3)n2CC(O)CO)n(C)c1=O (stereo unspecified),inconclusive: -0.9%
7,O=C(O)CCCC(=O)OCCCCc1cccs1,inconclusive: 2.1%
8,CN(c1ccccc1)C(c1ccc(F)cc1)c1nnnn1C1CCCC1 (stereo unspecified),inconclusive: -4.1%
9,COc1ccccc1-[n+]1c(C)cc(/C=C2\Sc3ccccc3N2C)cc1C,active: 87.7%
10,COC(=O)c1cc(NC(=O)c2cc(-c3ccc(Cl)cc3)oc2C(F)(F)F)ccc1N1CCOCC1,inconclusive: 0%
11,Cc1cc2nc3ccc(=[N+](C)C)cc-3sc2cc1N,active: 61.4%
12,Cc1cc(N2CCOCC2)nc2ccc(NC(=S)N3CCCCC3C)cc12 (stereo unspecified),inactive: 3.5%
13,O=C(Nn1c(O)c(C=C2N=c3ccccc3=N2)sc1=S)c1ccccc1Cl,active: 60.7%
14,COc1ccc(/C=N/NC(=O)CSCC(=O)Nc2ccccc2)cc1,inconclusive: 11.3%
15,CNC(=S)N1N=C2c3ccccc3CCC2C1c1ccccc1Cl (stereo unspecified),inconclusive: 4.4%
16,Cn1cc(Br)c(-c2cccc(NC(=O)CC(C)(C)CC(=O)O)c2)n1,inconclusive: 22.4%
17,CCCN(CC(=O)Nc1ccccc1C)C(=O)C1CC(=O)N(c2ccc(CC)cc2)C1 (stereo unspecified),inactive: -2%
18,Cc1cccc(C(=O)Nc2ccc(N3CCN(c4ccc(C(F)(F)F)cn4)CC3)nc2)c1,inconclusive: -6.1%
19,COCCn1cnc2c(c1=O)c1nc3ccccc3nc1n2/N=C/c1ccc(OC)c(OC)c1,inconclusive: 1.7%
20,CC12CN3CC(C)(CN(C1)C3c1ccc(Cl)cc1)C2 (stereo unspecified),inconclusive: 2.3%
21,C=CCn1c(Cc2cccs2)nnc1SCC(=O)c1ccc2ccccc2c1,inconclusive: 2.6%
22,Cc1cc(OCC(=O)NCc2cccnc2)c2c3c(c(=O)oc2c1)CCCC3,inactive: 8.1%
23,CCN1C/C(=C/c2ccc(N3CCOCC3)cc2)C(=O)/C(=C/c2ccc(N3CCOCC3)cc2)C1,active: 37.3%

row,Compound,inhibition
1,Cc1ccc(N2CC(C(=O)Nc3ccc(S(=O)(=O)N4CCCC4)cc3)CC2=O)cc1 (stereo unspecified),inconclusive: -2.1%
2,O=C1c2ccccc2C(=O)N1c1ccc(S(=O)(=O)N2CCCCC2)cc1,inactive: 0.9%
3,NC(=O)C1CCN(Cc2nnnn2Cc2ccco2)CC1,inactive: 0.1%
4,CCCCCCCN=C(C)c1ccccc1O,inconclusive: 10.2%
5,O=C(CCCN1C(=O)c2ccccc2C1=O)Nc1ccc(S(=O)(=O)N2CCCCC2)cc1,inactive: -0.4%
6,Cc1ccc(NC(=O)N2CCCC2C(=O)NCCC2=CCCCC2)cc1 (stereo unspecified),inconclusive: 9.6%
7,Cc1ccsc1C(=O)OCC(=O)NCCNC(=O)COC(=O)c1sccc1C,inconclusive: -2.7%
8,Cc1nn(-c2cc(N3CCCCC3)ccc2N)c(=O)c2ccccc12,inconclusive: 1.8%
9,CCOc1ccc(C(CC(=O)O)NC(=O)c2ccco2)cc1 (stereo unspecified),inconclusive: 2.8%
10,CCOC(=O)C1CCCN(C(=O)c2cn(C)c3ccc(S(=O)(=O)N4CCCC4)cc3c2=O)C1 (stereo unspecified),inconclusive: 2.8%
11,CN1CCc2c(sc(/N=C/c3cccs3)c2C(N)=O)C1,inactive: 9.9%
12,COc1cc2c(cc1OC)CN(C1CCC(C)CC1)CC2 (stereo unspecified),inconclusive: -2.7%
13,CCCCOc1ccc(C(=O)NCCC(=O)NCCCC(=O)OCC)cc1,inconclusive: -30.4%
14,CN(C)c1ccc(/C=C/c2ccc3c4ccccc4ccc3[n+]2-c2ccccc2)cc1,active: 62.4%
15,CN(c1cccc(NC(=O)CN(c2ccc(C34CC5CC(CC(C5)C3)C4)cc2)S(C)(=O)=O)c1)S(C)(=O)=O,inconclusive: 3.9%
16,c1ccc(CSc2ncccn2)cc1,inactive: -0.5%
17,COC(=O)[C@@]1(Cc2ccc(F)cc2)[C@H]2c3cc(C(=O)N4CCCC4)n(CCN4CCNC4=O)c3C[C@H]2CN1C(=O)c1ccccc1,inactive: -0.4%
18,CC(C)(C)c1ccc(N2C(=O)Cc3c2nc(N)c(C#N)c3N)cc1,inconclusive: 21.8%
19,O=C(NCc1nnnn1-c1ccc(F)cc1)C(=O)c1c[nH]c2ccccc12,inactive: 0%
20,COC(=O)c1cc(-c2ccccc2)n(CCN)c1C,inactive: 0%
21,O=C(Nc1c(C(=O)N2CCOCC2)oc2ccccc12)c1cccc([N+](=O)[O-])c1,inactive: -0.1%
22,COc1ccc(C(=O)c2cn[nH]c2-c2cc(Cl)ccc2O)cc1,inactive: -0.6%

# 24 consecutive records out of the list so far:
row,Compound,inhibition
6,Cn1c(=O)c2c(nc(CN3CCOCC3)n2CC(O)CO)n(C)c1=O (stereo unspecified),inconclusive: -0.9%
7,O=C(O)CCCC(=O)OCCCCc1cccs1,inconclusive: 2.1%
8,CN(c1ccccc1)C(c1ccc(F)cc1)c1nnnn1C1CCCC1 (stereo unspecified),inconclusive: -4.1%
9,COc1ccccc1-[n+]1c(C)cc(/C=C2\Sc3ccccc3N2C)cc1C,active: 87.7%
10,COC(=O)c1cc(NC(=O)c2cc(-c3ccc(Cl)cc3)oc2C(F)(F)F)ccc1N1CCOCC1,inconclusive: 0%
11,Cc1cc2nc3ccc(=[N+](C)C)cc-3sc2cc1N,active: 61.4%
12,Cc1cc(N2CCOCC2)nc2ccc(NC(=S)N3CCCCC3C)cc12 (stereo unspecified),inactive: 3.5%
13,O=C(Nn1c(O)c(C=C2N=c3ccccc3=N2)sc1=S)c1ccccc1Cl,active: 60.7%
14,COc1ccc(/C=N/NC(=O)CSCC(=O)Nc2ccccc2)cc1,inconclusive: 11.3%
15,CNC(=S)N1N=C2c3ccccc3CCC2C1c1ccccc1Cl (stereo unspecified),inconclusive: 4.4%
16,Cn1cc(Br)c(-c2cccc(NC(=O)CC(C)(C)CC(=O)O)c2)n1,inconclusive: 22.4%
17,CCCN(CC(=O)Nc1ccccc1C)C(=O)C1CC(=O)N(c2ccc(CC)cc2)C1 (stereo unspecified),inactive: -2%
18,Cc1cccc(C(=O)Nc2ccc(N3CCN(c4ccc(C(F)(F)F)cn4)CC3)nc2)c1,inconclusive: -6.1%
19,COCCn1cnc2c(c1=O)c1nc3ccccc3nc1n2/N=C/c1ccc(OC)c(OC)c1,inconclusive: 1.7%
20,CC12CN3CC(C)(CN(C1)C3c1ccc(Cl)cc1)C2 (stereo unspecified),inconclusive: 2.3%
21,C=CCn1c(Cc2cccs2)nnc1SCC(=O)c1ccc2ccccc2c1,inconclusive: 2.6%
22,Cc1cc(OCC(=O)NCc2cccnc2)c2c3c(c(=O)oc2c1)CCCC3,inactive: 8.1%
23,CCN1C/C(=C/c2ccc(N3CCOCC3)cc2)C(=O)/C(=C/c2ccc(N3CCOCC3)cc2)C1,active: 37.3%
1,Cc1ccc(N2CC(C(=O)Nc3ccc(S(=O)(=O)N4CCCC4)cc3)CC2=O)cc1 (stereo unspecified),inconclusive: -2.1%
2,O=C1c2ccccc2C(=O)N1c1ccc(S(=O)(=O)N2CCCCC2)cc1,inactive: 0.9%
3,NC(=O)C1CCN(Cc2nnnn2Cc2ccco2)CC1,inactive: 0.1%
4,CCCCCCCN=C(C)c1ccccc1O,inconclusive: 10.2%
5,O=C(CCCN1C(=O)c2ccccc2C1=O)Nc1ccc(S(=O)(=O)N2CCCCC2)cc1,inactive: -0.4%
6,Cc1ccc(NC(=O)N2CCCC2C(=O)NCCC2=CCCCC2)cc1 (stereo unspecified),inconclusive: 9.6%
